The values below come from PubChem BioAssay AID2685 (National Center for Advancing Translational Sciences (NCATS), 2010).

A short description of this experiment: qHTS Assay for Lipid Storage Modulators in Drosophila S3 Cells.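 For cell number change: cells counted by Cell Tracker Red CMTPX staining in the red channel.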 To be noted: BODIPY lipid droplet fluorescence, 18-24 h; for cell number change: measured here: cell count max response, cells fed with added oleic acid. The method in brief:
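Drosophila S3 cells loaded with oleic acid (400 uM, as added) and compounds at several concentrations; lipid droplets imaged by 488-nm laser-scanning cytometry, 500–530 nm intensity and object ratio to cell channel. Percent activity normalized to 20 uM Triacsin C.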

Setting [1] is: measured here: lipid fluorescence (Fed channel) AC50, cells fed with added oleic acid.
Setting [2] is: measured here: cell number channel AC50, cells fed with added oleic acid.

This is one part of the list. The main result of the screen is listed elsewhere. These columns were measured beside it and carry no call. Compounds called inactive in the main read-out are mostly missing here. Potencies come from curve fits of mixed quality, noted in brackets.

In the case of `O=C(c1nnc(Cc2ccc(Cl)cc2)o1)N1CCOCC1`, the cell number change is -14.1%. Also, under setting [1], the AC50 – broadly, the concentration at which the activity in the assay is half-maximal – is 3.26 µM [falling, single point].
Consider `CC(C)(C)NC(=O)c1ccncc1`, for which the cell number change turned out to be 4.07%. Moreover, the AC50 under setting [1] is 1.16 µM [falling, full curve].
In the case of `Cc1ccc(CNC(=O)C2CCCN2S(=O)(=O)c2ccc(F)cc2)cc1` (stereo not given), the cell number change was determined as 11.8%. Moreover, the AC50 under setting [1] was 18.4 µM [rising, single point].
Turning to `CS(=O)(=O)N1CCN(c2ccc(NC(=O)COc3ccccc3[N+](=O)[O-])cc2)CC1`, the cell number change was 16.5%.
As for `COc1ccc(C2CC(c3ccc(Cl)cc3Cl)Nc3nc(N)nn32)cc1` (stereo not given), the AC50 under setting [1] was 0.58 µM [rising, full curve, poor fit].
Turning to `Cc1cc(NC(=O)c2ccccc2)n(-c2nc3ccccc3[nH]2)n1`, the cell number change amounted to 19.3%. Besides, under setting [1], the AC50 was 1.84 µM [rising, partial curve].
Consider `CCOc1ccc(C(=O)NC2CCN(S(C)(=O)=O)CC2)cc1`, for which the cell number change came out at 6.93%.
In the case of `Cc1onc(-c2ccc3c(c2)OCO3)c1-c1ccc2[nH]ccc2c1`, the cell number change is -10.7%. For the same molecule, the AC50 under setting [1] is 11.6 µM [rising, single point].
For `COc1ccccc1NS(=O)(=O)c1ccc2oc(=O)ccc2c1`, the cell number change came out at 0.88%.
`O=C(/C=C1\NC2(CCCC2)Cc2ccccc21)C(=O)N/N=C/c1ccc(O)c(O)c1`: the cell number change is -17.2%. For the same molecule, the AC50 under setting [1] is 29.1 µM [falling, partial curve, poor fit].
Turning to `CCc1nnc(NC(=O)[C@@H](NC(=O)c2cc(OC)cc(OC)c2)C(C)C)s1`, the cell number change was 118%. For the same molecule, the AC50 under setting [2] is 29.1 µM [rising, partial curve, poor fit]. Also, the concentration at half-maximal activity (AC50) under setting [1] is 29.1 µM [rising, partial curve].
On to `CC(=O)Nc1cccc(NC(=O)COc2ccc3c(c2)OCO3)c1`, for which the cell number change worked out at 23.1%. Moreover, the AC50 under setting [1] is 6.51 µM [rising, single point].
Take `O=c1c2c(nc(NCCO)n1CC1CCCCC1)-c1ccccc1CC21CCCC1`: the cell number change is -6.71%.
Turning to `CC1(C)C2CCC1(C)C(OC(=O)C[n+]1ccccc1N)C2` (stereo not given), the cell number change was -18.1%. Further, the AC50 under setting [1] is 3.26 µM [falling, full curve].
As to `CCOc1ccc(C(=O)NCC(=O)OCC(=O)N2CCCC2)cc1`, the cell number change came to 2.6%. Also, the half-maximal activity concentration (AC50) under setting [2] was 0.517 µM [falling, single point].
For the molecule `CCOc1ccc(CN2CCN(c3cc(C)nc4c5c(C)cc(C)nc5nn34)CC2)cc1`, the AC50 reads like this: under setting [2], 1.84 µM [rising, partial curve]; under setting [1], 0.58 µM [rising, single point].
As to `COc1ccccc1CNC(=O)CCNS(=O)(=O)c1ccc2c(c1)CC(C)N2C(C)=O` (stereo not given), the cell number change amounted to 17.3%.
As to `Cn1cccc1C1C(C#N)=C(N)OC2=C1C(=O)CCC2` (stereo not given), the cell number change came out at 0.234%. Further, the AC50 under setting [2] is 4.11 µM [rising, single point]. Further, the half-maximal activity concentration (AC50) under setting [1] was 16.4 µM [falling, single point].
As to `CC(=O)N1CCCc2cc(S(=O)(=O)N3CCCC(C(=O)NCc4ccccc4Cl)C3)ccc21` (stereo not given), the cell number change was -3.67%.
`COCCn1c(Cc2cccn2C)nnc1SCC(=O)NCc1ccc2c(c1)OCO2`: the cell number change is -43.4%. Further, under setting [2], the concentration at half-maximal activity (AC50) was 29.1 µM [falling, single point]. Also, the AC50 under setting [1] was 16.4 µM [falling, single point].
As to `CCC1CCCCN1S(=O)(=O)c1ccc(NC(=O)c2nc(S(C)(=O)=O)ncc2Cl)cc1` (stereo not given), the cell number change is -23.2%. The half-maximal activity concentration (AC50) under setting [1] was 29.1 µM [falling, single point].
As to `O=C(NCCN1CCN(c2ccccc2F)CC1)C1c2ccccc2C(=O)N2CCc3ccccc3C12` (stereo not given), the cell number change stood at 91%. The AC50 under setting [2] was 20.6 µM [rising, single point]. In addition, the AC50 under setting [1] is 29.1 µM [rising, single point].
Regarding `Cc1cc(C)c(OCCCCN(C)Cc2ccccc2)c(C)c1`, the concentration at half-maximal activity (AC50) under setting [1] is 0.259 µM [falling, partial curve].
On to `CCCCN(C)Cc1c(C)[nH]c2ccc(C)cc2c1=O`, for which the cell number change came out at 5.99%. For the same molecule, the half-maximal activity concentration (AC50) under setting [1] was 29.1 µM [rising, single point].
In the case of `NC(=S)NN=C(Cc1ccccc1)Cc1ccccc1`, the cell number change was -12.3%. Further, the AC50 under setting [2] is 0.184 µM [falling, full curve, poor fit].
In the case of `CN(C1CCCCC1)S(=O)(=O)c1ccc(-c2ccccn2)s1`, the cell number change was -3.7%.
For the molecule `Cc1ccc(S(=O)(=O)c2nc(C)oc2N2CCOCC2)cc1`, the cell number change is -16.4%. The AC50 under setting [1] is 5.8 µM [falling, partial curve].
Turning to `COCCNC(=O)c1ccccc1NC(=O)c1ccccc1SC`, the cell number change worked out at 33.7%. Further, the concentration at half-maximal activity (AC50) under setting [2] was 4.11 µM [rising, full curve, poor fit]. For the same molecule, the concentration at half-maximal activity (AC50) under setting [1] is 5.17 µM [rising, full curve].
Turning to `O=C(CSc1ccc(-c2cccnc2)nn1)Nc1ccc(F)c(F)c1`, the cell number change was determined as 17%. Further, the AC50 under setting [2] was 2.51 µM [rising, partial curve]. Under setting [1], the half-maximal activity concentration (AC50) was 0.1 µM [rising, full curve, poor fit].
Take `CC(=O)Nc1ccc(OCC(O)Cn2cncn2)cc1` (stereo not given): the cell number change is -17.8%. Further, the AC50 under setting [1] is 18.4 µM [falling, single point].
Regarding `CCCS(=O)(=O)Nc1ccc(N2CCCCC2)c(S(=O)(=O)Nc2ccccc2OC)c1`, the cell number change was found to be 36%. In addition, the concentration at half-maximal activity (AC50) under setting [2] is 2.06 µM [rising, full curve].
As to `O=C(NC1CCCCC1)c1ccc(S(=O)(=O)c2ccccc2Cl)c([N+](=O)[O-])c1`, the cell number change turned out to be 0.0856%. Besides, under setting [1], the half-maximal activity concentration (AC50) was 20.6 µM [falling, single point].
`Cc1ccc(C)c(OC(=O)c2cccc(S(=O)(=O)N3CCN(C)CC3)c2)c1`: the cell number change came to 13.6%. Also, the AC50 under setting [2] was 5.8 µM [rising, single point]. Under setting [1], the AC50 was 2.31 µM [rising, partial curve].
Consider `CCC(CC)C(=O)N(CCc1ccc(OC)cc1)Cc1nc2ccccc2c(=O)[nH]1`, for which the cell number change is 74.7%. For the same molecule, the concentration at half-maximal activity (AC50) under setting [2] was 16.4 µM [rising, partial curve]. Further, the half-maximal activity concentration (AC50) under setting [1] was 3.66 µM [rising, single point].
`CC(C(=O)N1CCOCC1)N1C(=O)C2C3CC(C(Br)C3Br)C2C1=O` (stereo not given): the cell number change came to 27.2%. The half-maximal activity concentration (AC50) under setting [1] is 18.4 µM [rising, single point].
As for `O=C(Nc1nc2ccccc2[nH]1)C12CC3CC(CC(C3)C1)C2`, the AC50 under setting [1] was 7.31 µM [falling, single point].
For `C=C(C)C(C)(C#CCN1CCCC1)OC(C)=O` (stereo not given), the cell number change was -101%. In addition, the concentration at half-maximal activity (AC50) under setting [2] is 11.6 µM [falling, partial curve]. Besides, the AC50 under setting [1] was 20.6 µM [falling, partial curve].
With `CCOc1ccccc1-n1c(SCC(=O)NC)nnc1-c1ccco1`, the cell number change was determined as 27.2%. Also, under setting [1], the AC50 was 0.13 µM [falling, full curve, poor fit].
As to `Cc1cc(Nc2ccccc2)n(CCO)n1`, the cell number change came to 37.6%. Under setting [2], the concentration at half-maximal activity (AC50) is 8.2 µM [rising, partial curve].
As to `COc1ccc(CN2CC(C(=O)NCCCOC(C)C)CC2=O)cc1` (stereo not given), the cell number change was -51.3%. The half-maximal activity concentration (AC50) under setting [2] was 0.731 µM [falling, full curve]. Besides, the half-maximal activity concentration (AC50) under setting [1] was 10.3 µM [falling, single point].
Regarding `COc1ccc(C(CC(=O)O)N2Cc3ccccc3C2=O)cc1OC` (stereo not given), the cell number change was -33.8%. Besides, under setting [2], the AC50 was 18.4 µM [falling, single point]. In addition, under setting [1], the AC50 is 1.16 µM [falling, full curve].
Consider `Clc1ccccc1-c1ccc2ncnc(NCc3cccnc3)c2c1`, for which the cell number change came to 13.6%.
For `CCOc1cc(C=C(C(=O)OC)C(=O)OC)ccc1OCc1ccc([N+](=O)[O-])cc1`, the cell number change was 52%. In addition, the concentration at half-maximal activity (AC50) under setting [2] was 29.1 µM [rising, single point]. Under setting [1], the AC50 was 5.8 µM [falling, single point].
For the molecule `Cc1cccc(NC(=O)C(C)N2C(=O)C3C4CC(C(Br)C4Br)C3C2=O)c1` (stereo not given), the cell number change is -76.9%. Moreover, the concentration at half-maximal activity (AC50) under setting [2] is 4.11 µM [falling, full curve]. In addition, under setting [1], the AC50 is 0.366 µM [falling, full curve].
Consider `Cc1nccc2[nH]c(=O)c(C(=O)NCCCN(C)C3CCCCC3)cc12`, for which the cell number change was -8.65%. Under setting [1], the AC50 is 0.231 µM [falling, full curve, poor fit].
Take `Cc1csc(NC(=O)CCC(=O)N(CC(=O)NC2CCCCC2)c2ccccc2)n1`: the cell number change was 11.7%. Also, the AC50 under setting [1] was 29.1 µM [rising, single point].
Regarding `O=C(OCc1ccc(Br)cc1)c1cccnc1`, the cell number change was -7.72%. Further, the AC50 under setting [1] was 2.06 µM [falling, full curve, poor fit].
Turning to `O=C1C=C(Nc2ccccc2)c2ccccc2C1=O`, the cell number change is -32.9%. Besides, the concentration at half-maximal activity (AC50) under setting [2] is 18.4 µM [falling, single point]. Also, the AC50 under setting [1] is 18.4 µM [falling, single point].
In the case of `O=C(Cc1c(F)cccc1Cl)NCc1cccnc1`, the cell number change is 1.17%. Also, under setting [1], the AC50 is 29.1 µM [falling, single point].
Turning to `O=C(CN1C(=O)CCC1=O)Nc1nc(-c2cccs2)cs1`, the cell number change is -3.6%. Besides, under setting [1], the concentration at half-maximal activity (AC50) is 0.731 µM [falling, full curve].
As to `Cc1cc(C)n2c(SCc3ccc(Cl)cc3Cl)nnc2n1`, the cell number change was -60.4%. The AC50 under setting [2] is 23.1 µM [falling, single point]. Also, the concentration at half-maximal activity (AC50) under setting [1] was 23.1 µM [falling, single point].
For `Cc1cccn2c(=O)nc(SCC(=O)NCc3ccc(F)cc3)nc12`, the cell number change was 40.7%. Under setting [2], the concentration at half-maximal activity (AC50) was 9.2 µM [rising, partial curve, poor fit].
As to `CC(=O)Nc1ccc(S(=O)(=O)N(Cc2ccco2)Cc2cc3ccccc3[nH]c2=O)cc1`, the cell number change was -21.8%. Further, under setting [1], the AC50 is 13 µM [falling, single point].
Turning to `Cc1ccc(NC(=O)NCC2CCN(Cc3cc(C)ccc3Cl)CC2)c(C)c1`, the cell number change was determined as 27%.
For `C=CCNC(=S)Nc1ccc(C)c(S(=O)(=O)N2CCCCC2)c1`, the cell number change was -21.3%. The AC50 under setting [1] was 0.00411 µM [rising, full curve, poor fit].
Take `c1cn(C23CC4CC(CC(C4)C2)C3)cn1`: the AC50 under setting [1] was 0.651 µM [falling, single point].
For `C=CCOc1c(Cl)cc(/C=N/O)cc1OC`, the cell number change is -8.23%.
For `Cc1ccc2ccc3ccc(C)nc3c2n1`, the cell number change was -15.3%. Besides, under setting [1], the AC50 is 1.84 µM [falling, partial curve, poor fit].
On to `Cc1onc(-c2c(Cl)cccc2Cl)c1C(=O)NNc1ccccc1`, for which the cell number change was -31.1%. In addition, the AC50 under setting [2] was 18.4 µM [falling, single point]. Further, under setting [1], the concentration at half-maximal activity (AC50) was 29.1 µM [falling, single point].
